{"source": "PubChem BioAssay AID1347075", "about": "(National Center for Advancing Translational Sciences (NCATS), 2019)", "note": "Among all 400,000 compounds or so, about 5,500 (1.4%) were called active. This list was built around the results that the source calls inconclusive (neither active nor inactive); the mix of calls is not that of the screen. Calls follow the shape of the dose curve; as a rule, active = well fitted cell-killing curve with a large enough effect; inconclusive = small, poorly fitted or top-dose-only effect, or effect the other way; inactive = flat fitted curve, though single readings scatter. Potencies of inconclusive entries are doubtful fits and often do not repeat. % is scaled to controls: 0 for no effect and ±100 for the full control effect; potency is read from the fitted curve at half-maximal effect."}
{"test": "qHTS assay for MDR1-selective chemotherapeutics: Primary screen using the parental adenocarcinoma cell KB-3-1; also: nearly all actives have a fitted effect of over 60% in size", "details": "KB-3-1 viability, CellTiter-Glo ATP luminescence, 72 h; activity change, negative = cytotoxic: at 46.1 µM (top of the series)", "outline": "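Here the drug-naive KB-3-1 line serves as comparator for MDR sub-line selectivity; cells received compound titrations, 72 h at 37 °C, then CellTiter-Glo readout.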"}
{"smiles": "CN1C(=O)[C@H]2[C@@H](c3ccccc3)N[C@]3(CCCN(Cc4ccc(F)cc4)C3=O)[C@H]2C1=O", "Potency": "inconclusive: 0.517 µM [rising, full curve]"}
{"smiles": "Nc1cc[n+](CC(=O)c2ccccc2)cc1", "Potency": "inconclusive: 16.4 µM [cytotoxic, single point]"}
{"smiles": "CCN1C(=O)c2cccc3c(S(=O)(=O)NCc4ccccn4)ccc1c23", "Potency": "inconclusive: 5.17 µM [cytotoxic, full curve, poor fit]"}
{"smiles": "COC(=O)[C@]12CCCCC=C1N(CCC1=CCCCC1)C(=O)[C@H](CC(=O)NCCCCc1ccccc1)C2", "Potency": "inconclusive: 29.1 µM [cytotoxic, single point]"}
{"smiles": "CCCc1cc(=O)[nH]c(SCC(=O)Nc2ccc(Cl)c(S(=O)(=O)N3CCOCC3)c2)n1", "activity change, negative = cytotoxic": "inactive: -7.3%"}
{"smiles": "COC(=O)[C@@]1(C)[C@H]2C(=O)N(Cc3ccccc3)C(=O)[C@H]2[C@H]2CN=C(SCc3ccc(C)cc3)N21", "activity change, negative = cytotoxic": "inactive: 2.38%"}
{"smiles": "CCc1cccc(NC(c2nnc(-c3ccccc3)o2)c2ccc(F)cc2Cl)c1", "note": "(stereo unspecified)", "activity change, negative = cytotoxic": "inactive: 0.775%"}
{"smiles": "Cc1ccc(NC(=O)NCC2CCN(Cc3cccc(Cl)c3)CC2)cc1Cl", "Potency": "inconclusive: 23.1 µM [cytotoxic, partial curve, poor fit]"}
{"smiles": "O=C(C[n+]1cc(Br)cc(Br)c1)c1ccccc1", "Potency": "inconclusive: 29.1 µM [rising, single point]"}
{"smiles": "CCN1c2ccccc2-c2nc(SCC(=O)Nc3c(C)cc(C)cc3C)ncc2S1(=O)=O", "Potency": "active: 10.3 µM"}
{"smiles": "O=C(NC(c1ccc(-c2ccccc2)cc1)c1cnccn1)C1CCN(CCCOc2ccccc2)CC1", "note": "(stereo unspecified)", "Potency": "inconclusive: 29.1 µM [cytotoxic, single point]"}
{"smiles": "COc1cccc(-n2c(-c3ccco3)nc3c(cnn3-c3ccc(C)cc3)c2=O)c1", "Potency": "inconclusive: 20.6 µM [cytotoxic, single point]"}
{"smiles": "Cc1cccc(NC(=O)NCc2cccnc2)c1C", "activity change, negative = cytotoxic": "inactive: 6.89%"}
{"smiles": "N#Cc1cnc2cc(-c3ccccc3)nn2c1N", "Potency": "inconclusive: 29.1 µM [cytotoxic, single point]"}
{"smiles": "CC(=O)Nc1ccc(S(=O)(=O)NC2(C(F)(F)F)C(=O)Nc3c2c(=O)[nH]c(=O)n3-c2ccc(C)c(C)c2)cc1", "note": "(stereo unspecified)", "activity change, negative = cytotoxic": "inactive: 12.6%"}
{"smiles": "CCCn1nnnc1NC(=O)COc1ccc(CC)cc1", "activity change, negative = cytotoxic": "inactive: 12.6%"}
{"smiles": "CC1=C(C(=O)N(C(C)C)C(C)C)CC(CC(=O)NCc2cccc3ccccc23)C(=O)N1Cc1ccc(C(C)(C)C)cc1", "note": "(stereo unspecified)", "Potency": "active: 23.1 µM"}
{"smiles": "CC(O)/C=C/c1ccc2ccccc2n1", "note": "(stereo unspecified)", "Potency": "inconclusive: 29.1 µM [cytotoxic, single point]"}
{"smiles": "CC(C)(C)c1cc(/C=C2\\NC(=O)NC2=O)cc(C(C)(C)C)c1O", "Potency": "inconclusive: 25.9 µM [cytotoxic, partial curve, poor fit]"}
{"smiles": "Cc1ccc2cccc(NC(=O)C(C)Oc3ccc(C)c(C)c3)c2n1", "note": "(stereo unspecified)", "activity change, negative = cytotoxic": "inactive: -2.07%"}
{"smiles": "O=C1C=CC(=O)N1c1ccc(OC(F)F)cc1", "Potency": "inconclusive: 23.1 µM [cytotoxic, single point]"}
{"smiles": "Cc1nn(C2CCS(=O)(=O)C2)c(Cl)c1/C=C/C(=O)OCC(=O)c1c[nH]c2ccccc12", "note": "(stereo unspecified)", "Potency": "inconclusive: 23.1 µM [cytotoxic, partial curve, poor fit]"}
{"smiles": "COc1ccccc1Cc1c(C2CCCCC2)nc2ccc(Br)cn12", "Potency": "inconclusive: 20.6 µM [cytotoxic, single point]"}
{"smiles": "O=C(NC(=O)c1cccc(F)c1)OC[C@@H]1CCCN2CCCC[C@H]12", "activity change, negative = cytotoxic": "inconclusive: 35.3%"}
{"smiles": "O=C(CCn1nnc2ccccc21)N1CCC(O)(c2cccc(F)c2)CC1", "Potency": "inconclusive: 11.6 µM [rising, partial curve]"}
{"smiles": "Cc1ccc(NC(=O)c2cccc3c2C(=O)N(C2CCCCC2)C3)cc1", "activity change, negative = cytotoxic": "inactive: 15.2%"}
{"smiles": "Cc1ccc(NC2=C(N3CCCCC3)C(=O)c3ccccc3C2=O)cc1", "Potency": "inconclusive: 20.6 µM [cytotoxic, single point]"}
{"smiles": "C=CCNC(=O)C1CC(c2cccc(OC)c2)=NO1", "note": "(stereo unspecified)", "activity change, negative = cytotoxic": "inactive: -7.68%"}
{"smiles": "Cc1cc(C)c(S(=O)(=O)N2CCN(S(=O)(=O)N3CCOCC3)CC2)c(C)c1", "activity change, negative = cytotoxic": "inactive: -4.5%"}
{"smiles": "Cc1c(NS(C)(=O)=O)cccc1-c1nc2cccnc2s1", "activity change, negative = cytotoxic": "inactive: -12.3%"}
{"smiles": "CCOC1=C2[C@@H](CN(S(=O)(=O)c3ccc(C)cc3)[C@H]2c2cccc3ccccc23)[C@H]2C(=O)N(CC)C(=O)[C@H]2C1", "activity change, negative = cytotoxic": "inactive: 0.0564%"}
{"smiles": "Cc1ccc(C)c(N2CCN(C(=O)c3cc4c(=O)oc5ccccc5c4s3)CC2)c1", "activity change, negative = cytotoxic": "inactive: -9.38%"}
{"smiles": "C/C(=N\\Nc1cccc(C(F)(F)F)c1)c1ccc(O)cc1", "activity change, negative = cytotoxic": "inactive: -3%"}
{"smiles": "CCOC(=O)C(C)On1c(SC(C)C(=O)OCC)nc2ccccc2c1=O", "note": "(stereo unspecified)", "activity change, negative = cytotoxic": "inactive: 4.34%"}
{"smiles": "Cc1ccc(OCCCCN2CCC(C)CC2)c(Br)c1", "activity change, negative = cytotoxic": "inactive: -4.72%"}
{"smiles": "CCOC(=O)CC(NC(=O)Cn1nnc(-c2ccccc2F)n1)c1ccc(OC)cc1", "note": "(stereo unspecified)", "Potency": "inconclusive: 5.8 µM [rising, partial curve, poor fit]"}
{"smiles": "Cc1cccc(OCCNc2cc(N3CCN(CCO)CC3)ccc2[N+](=O)[O-])c1", "activity change, negative = cytotoxic": "inactive: -8.08%"}
{"smiles": "CN1OC[C@@H]2CN(C(=O)CCc3ccccc3)[C@H](c3cccc(N4CCOCC4)c3)C[C@@H]21", "Potency": "inconclusive: 29.1 µM [rising, single point]"}
{"smiles": "Cc1cccc(C2c3[nH]c4ccccc4c3CCN2C(=O)c2cc(CC(C)C)nc(C)n2)n1", "note": "(stereo unspecified)", "activity change, negative = cytotoxic": "inactive: 0.387%"}
{"smiles": "O=C(C[n+]1cccc(Br)c1)c1ccc(O)c(O)c1", "Potency": "inconclusive: 29.1 µM [rising, single point]"}
{"smiles": "COC(=O)C[C@H](NC(=O)Cn1cnc2c(NCc3ccccc3)ncnc21)C(=O)OC", "Potency": "inconclusive: 0.0366 µM [cytotoxic, full curve]"}
{"smiles": "CC(C)C[C@H](NC(=O)c1[nH]cnc1C(=O)N[C@@H](Cc1ccccc1)C(=O)OC(C)(C)C)C(=O)OC(C)(C)C", "Potency": "inconclusive: 29.1 µM [cytotoxic, single point]"}
{"smiles": "Cc1ccnc(SCC(=O)N2CCCc3ccccc32)n1", "activity change, negative = cytotoxic": "inactive: -0.947%"}
{"smiles": "O=C(C1=C[C@H](c2csc3ccccc23)C[C@H](OCc2ccc(CO)cc2)O1)N1CCN(Cc2ccc3c(c2)OCO3)CC1", "activity change, negative = cytotoxic": "inactive: -7.06%"}
{"smiles": "CCNC(=O)C1(C)CCCN1C(=O)c1cnc2ccccc2n1", "note": "(stereo unspecified)", "activity change, negative = cytotoxic": "inactive: -0.135%"}
{"smiles": "Cc1cccc(-c2cnc(C(O)Cc3ccccc3)[nH]2)c1", "note": "(stereo unspecified)", "Potency": "inconclusive: 25.9 µM [cytotoxic, single point]"}
